Measured data: PubChem BioAssay AID1259405 (NCATS, 2018)
Aim: 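Knock-downs that lift recombinant protein yield in hamster ovary cells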 (primary screen). Cell system: Chinese hamster CHO-K1 ovary cells with stable secreted eGFP expression. Knock-down reagent: single siRNA against mouse genes, 0.8 pmol siRNA per well (2 µl of 400 nM stock). Time to read-out: 3 days. Measurement: 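Per-well intracellular GFP measured by laser scanning cytometry, plus viability from ATP luminescence, each relative to plate median of non-targeting control wells, in %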. Scale: GFP, % of control: higher = more GFP per well, higher productivity; viability (ATP), % of control: higher = more viable cells (more ATP). Active means: 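Called active when intracellular GFP, relative to negative control, is at or above 120%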.
The deposit covers about 50,000 reagents; this is a part drawn at random. About 4,000 of them (8%) were called active. 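Mouse siRNA library applied to hamster cells; one well for each siRNA.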 Reagents against one gene are numbered here.

| target gene | reagent | GFP, % of control | viability (ATP), % of control | Outcome |
| --- | --- | --- | --- | --- |
| Vwa5b2 | 1 | 87.2 | 92.3 | inactive |
| Vwa5b2 | 2 | 103 | 93.6 | inactive |
| Vwa5b2 | 3 | 75 | 50.4 | inactive |
| Vwa5b2 | 4 | 70.1 | 104 | inactive |
| Vwa5b2 | 5 | 146 | 51.9 | active |
| Vwa5b2 | 6 | 81.2 | 94.6 | inactive |
| Magea5 | 1 | 98 | 89.4 | inactive |
| Magea5 | 2 | 67 | 34.9 | inactive |
| Magea5 | 3 | 99.7 | 46.5 | inactive |
| Ush1g | 1 | 67.3 | 79 | inactive |
| Ush1g | 2 | 66.9 | 82.1 | inactive |
| Ush1g | 3 | 50.2 | 79.9 | inactive |
| Ankrd48 | 1 | 46.2 | 65.1 | inactive |
| Ankrd48 | 2 | 71.7 | 90 | inactive |
| Ankrd48 | 3 | 96.1 | 45.8 | inactive |
| Gpr27 | 1 | 144 | 44.9 | active |
| Gpr27 | 2 | 95.4 | 92.2 | inactive |
| Gpr27 | 3 | 110 | 76.5 | inactive |
| Ly6e | 1 | 84 | 61.5 | inactive |
| Ly6e | 2 | 58.3 | 51.6 | inactive |
| Ly6e | 3 | 90.5 | 45.8 | inactive |
| Sema4f | 1 | 42.9 | 64.9 | inactive |
| Sema4f | 2 | 92.5 | 86.1 | inactive |
| Sema4f | 3 | 88.1 | 113 | inactive |
| Tmem205 | 1 | 105 | 58.4 | inactive |
| Tmem205 | 2 | 78.2 | 109 | inactive |
| Tmem205 | 3 | 159 | 156 | active |
| Zfp97 | 1 | 72.6 | 82 | inactive |
| Zfp97 | 2 | 105 | 96.2 | inactive |
| Zfp97 | 3 | 74 | 59.1 | inactive |
| B530045E10Rik | 1 | 94.8 | 72.9 | inactive |
| B530045E10Rik | 2 | 87.5 | 92.5 | inactive |
| B530045E10Rik | 3 | 167 | 62 | active |
| Creb3 | 1 | 34.6 | 53.7 | inactive |
| Creb3 | 2 | 68.6 | 61.7 | inactive |
| Creb3 | 3 | 106 | 104 | inactive |
| Or11m3 | 1 | 58.3 | 55.2 | inactive |
| Or11m3 | 2 | 79.6 | 74.6 | inactive |
| Or11m3 | 3 | 70.6 | 47.5 | inactive |
| Aspdh | 1 | 198 | 113 | active |
| Aspdh | 2 | 64.8 | 66 | inactive |
| Aspdh | 3 | 37.1 | 47.6 | inactive |
| Tmem132c | 1 | 52.3 | 25.5 | inactive |
| Tmem132c | 2 | 101 | 68.1 | inactive |
| Tmem132c | 3 | 82.6 | 104 | inactive |
| Cnot10 | 1 | 75.8 | 88 | inactive |
| Cnot10 | 2 | 84.8 | 77 | inactive |
| Cnot10 | 3 | 83.1 | 115 | inactive |
| Fech | 1 | 48.8 | 89.5 | inactive |
| Fech | 2 | 66.1 | 78.6 | inactive |
| Fech | 3 | 74.3 | 76.2 | inactive |

The list goes on, starting with the last 11 of the part before.
| target gene | reagent | GFP, % of control | viability (ATP), % of control | Outcome |
| --- | --- | --- | --- | --- |
| Aspdh | 2 | 64.8 | 66 | inactive |
| Aspdh | 3 | 37.1 | 47.6 | inactive |
| Tmem132c | 1 | 52.3 | 25.5 | inactive |
| Tmem132c | 2 | 101 | 68.1 | inactive |
| Tmem132c | 3 | 82.6 | 104 | inactive |
| Cnot10 | 1 | 75.8 | 88 | inactive |
| Cnot10 | 2 | 84.8 | 77 | inactive |
| Cnot10 | 3 | 83.1 | 115 | inactive |
| Fech | 1 | 48.8 | 89.5 | inactive |
| Fech | 2 | 66.1 | 78.6 | inactive |
| Fech | 3 | 74.3 | 76.2 | inactive |
| Prmt5 | 1 | 62.6 | 80.6 | inactive |
| Prmt5 | 2 | 101 | 92.9 | inactive |
| Prmt5 | 3 | 97.4 | 114 | inactive |
| Comp | 1 | 93.1 | 115 | inactive |
| Comp | 2 | 87.1 | 86 | inactive |
| Ppfibp2 | 1 | 70.7 | 42.5 | inactive |
| Ppfibp2 | 2 | 87.2 | 74 | inactive |
| Ppfibp2 | 3 | 90.5 | 70.5 | inactive |
| Spata6l | 1 | 36.1 | 35.8 | inactive |
| Spata6l | 2 | 96.7 | 87.2 | inactive |
| Spata6l | 3 | 88 | 106 | inactive |
| Krt6a | 1 | 78.6 | 84.8 | inactive |
| Krt6a | 2 | 114 | 116 | inactive |
| Zmynd11 | 1 | 69.3 | 74.4 | inactive |
| Zmynd11 | 2 | 148 | 119 | active |
| Zmynd11 | 3 | 117 | 63.6 | inactive |
| Il33 | 1 | 104 | 73.8 | inactive |
| Il33 | 2 | 29.7 | 22.1 | inactive |
| Il33 | 3 | 77.3 | 101 | inactive |
| Rnf2 | 1 | 73.4 | 61.3 | inactive |
| Rnf2 | 2 | 54.9 | 107 | inactive |
| Rnf2 | 3 | 62.8 | 100 | inactive |
| Sox12 | 1 | 79.3 | 84.3 | inactive |
| Sox12 | 2 | 72.3 | 83.7 | inactive |
| Sox12 | 3 | 93.7 | 111 | inactive |
| Or4b1 | 1 | 112 | 64.2 | inactive |
| Or4b1 | 2 | 86.2 | 60 | inactive |
| Or4b1 | 3 | 66.9 | 83.4 | inactive |
| Polr3gl | 1 | 71.6 | 99.5 | inactive |
| Polr3gl | 2 | 95.2 | 70.6 | inactive |
| Polr3gl | 3 | 49 | 67.4 | inactive |
| Snx17 | 1 | 58.9 | 70.6 | inactive |
| Snx17 | 2 | 76.6 | 59.1 | inactive |
| Snx17 | 3 | 58.2 | 58.3 | inactive |
| Rhpn1 | 1 | 60.7 | 89.3 | inactive |
| Rhpn1 | 2 | 52.9 | 54.5 | inactive |
| Rhpn1 | 3 | 64.1 | 74.6 | inactive |
| Rbpj | 1 | 127 | 113 | active |
| Rbpj | 2 | 118 | 110 | inactive |
| Trmt1l | 1 | 82.5 | 80.1 | inactive |
| Trmt1l | 2 | 40.3 | 64.1 | inactive |
| Trmt1l | 3 | 26.2 | 28.5 | inactive |
| Eif4enif1 | 1 | 53.5 | 59.2 | inactive |
| Eif4enif1 | 2 | 91.4 | 59.2 | inactive |
| Eif4enif1 | 3 | 59.9 | 87.8 | inactive |
| Atp1b1 | 1 | 31.4 | 38.8 | inactive |
| Atp1b1 | 2 | 69.2 | 65.1 | inactive |
| Atp1b1 | 3 | 72 | 75.4 | inactive |
| Kbtbd7 | 1 | 55.7 | 59.8 | inactive |
| Kbtbd7 | 2 | 77.5 | 73.8 | inactive |
| Kbtbd7 | 3 | 62.2 | 73 | inactive |
| Rnd3 | 1 | 132 | 90.7 | active |
| Rnd3 | 2 | 97.1 | 77.3 | inactive |
| Rnd3 | 3 | 50.7 | 46.7 | inactive |
| Pcbp1 | 1 | 66.1 | 78.3 | inactive |
| Pcbp1 | 2 | 143 | 133 | active |
